Laboratory results as given in patent US20240010723A1 (IBEX BIOSCIENCES, published 2024).
No constants are given. Whether binding was seen depends on the method and setting. Some results given as binding are weak or reduced against the parent protein; the word gives no strength.

Amino acid sequences for entries named in this document (tags omitted). A change or cut given only in a name is not applied to a line headed by its entry.
UniProt P35613: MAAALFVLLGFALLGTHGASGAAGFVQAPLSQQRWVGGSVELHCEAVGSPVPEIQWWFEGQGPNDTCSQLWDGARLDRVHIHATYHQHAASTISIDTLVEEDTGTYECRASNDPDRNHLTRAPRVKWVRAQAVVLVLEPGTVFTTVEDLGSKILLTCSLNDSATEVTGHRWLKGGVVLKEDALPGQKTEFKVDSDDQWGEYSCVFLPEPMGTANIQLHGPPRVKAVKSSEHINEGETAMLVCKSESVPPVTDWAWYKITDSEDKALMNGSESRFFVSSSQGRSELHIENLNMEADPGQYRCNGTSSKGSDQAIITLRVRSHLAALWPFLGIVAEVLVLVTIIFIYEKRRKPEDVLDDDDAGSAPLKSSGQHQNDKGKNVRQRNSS

Experiments:
[1] = target: Human CD147 expressed on cells (HEK 293, HCC 1954, HeLa, Jurkat) (human) (UniProt P35613); assay: flow cytometry on Jurkat cells
[2] = target: Human CD147 expressed on cells (HEK 293, HCC 1954, HeLa, Jurkat) (human) (UniProt P35613); assay: flow cytometry on HeLa and HCC-1954 cells, 10 µg antibody
[3] = target: Human CD147 expressed on cells (HEK 293, HCC 1954, HeLa, Jurkat) (human) (UniProt P35613); assay: flow cytometry on HeLa cells, anti-Flag Dylight488
[4] = target: Human CD147 (Uniprot P35613), recombinant protein (human) (UniProt P35613); assay: SPR, CD147 as analyte (Example 3, FIG. 5)
[5] = target: Human CD147 expressed on cells (HEK 293, HCC 1954, HeLa, Jurkat) (human) (UniProt P35613); assay: flow cytometry on HEK 293 and HCC 1954 cells, 1 µg Ibx-77, anti-Flag Dylight488
[6] = target: Human CD147 (Uniprot P35613), recombinant protein (human) (UniProt P35613); assay: SPR, CD147 immobilized on CMD chip, Ibx-77 injected at 9.22-360 nM (Example 4, FIG. 7)
[7] = target: Human CD147 (Uniprot P35613), recombinant protein (human) (UniProt P35613); assay: SPR, CD147 as analyte (Example 3, FIG. 4)
[8] = target: Human CD147 (Uniprot P35613), recombinant protein (human) (UniProt P35613); assay: SPR, CD147 immobilized on CMD chip, Ibx-77 injected at 9.22-360 nM (Example 4, FIG. 6)
[9] = target: Human CD147 (Uniprot P35613), recombinant protein (human) (UniProt P35613); assay: ELISA, human CD147 coated (FIG. 1)
[10] = target: Human CD147 (Uniprot P35613), recombinant protein (human) (UniProt P35613); assay: SPR sensorgram comparison

Measured: binding

B1: Ibx-77 (dimer of Ibx-14) (VHH, not shown: small tags and cut ends)
chain: QVQLVESGGGLVQAGDSLTLSCAASGRSLSSNAMGWFRQAPGKEREFVSGTTWHAGTQYYAYAADSVKGRFTTSRDNANTVSLQMKRLKPEDTAVYYCAAAVSGPGYDSWGQGTQVTVSSEPKIPQPQPKPQPQPQPQPQPKPQPEPQVQLVESGGGLVQAGDSLTLSCAASGRSLSSNAMGWFRQAPGKEREFVSGTTWHAGTQYYAYAADSVKGRFTTSRDNANTVSLQMKRLKPEDTAVYYCAAAVSGPGYDSWGQGTQVTVSS
notes: Tandem bivalent VhH without Fc
not listed: [10]
binds: all other assays above

B2: Ibx-74 (dimer of Ibx-11) (VHH)
chain: QVRLEESGGGLVQAGGSLRLSCAASGLAFSIYGMGWFRQAPGKEREFVSVVDNTGSTTLYADSVKGRFTISRDNAKNTVYLQMSSLEPEDTAVYYCGAGPKNYLGSHEYAYWGQGTQVTVSSEPKIPQPQPKPQPQPQPQPQPKPQPEPQVRLEESGGGLVQAGGSLRLSCAASGLAFSIYGMGWFRQAPGKEREFVSVVDNTGSTTLYADSVKGRFTISRDNAKNTVYLQMSSLEPEDTAVYYCGAGPKNYLGSHEYAYWGQGTQVTVSS
notes: Tandem bivalent VhH
binds: [10]

B3: Ibx-76 (dimer of Ibx-13) (VHH)
chain: QVQLVESGGGLVQPGGSLRLSCTASEDTFSTYAIGWFRQAPGQGREFVAGITANGIATRYNDSLKDRFTISRDNAKNTVYLQMNSLQPEDTAVYSCGADTRRFSLPSTVHEIDYWGQGTQVTVSSEPKIPQPQPKPQPQPQPQPQPKPQPEPQVQLVESGGGLVQPGGSLRLSCTASEDTFSTYAIGWFRQAPGQGREFVAGITANGIATRYNDSLKDRFTISRDNAKNTVYLQMNSLQPEDTAVYSCGADTRRFSLPSTVHEIDYWGQGTQVTVSS
notes: Tandem bivalent VhH without Fc; not shown: Flag tag, since detection was with anti-flag
binds: [9]

B4: Ibx-75 (dimer of Ibx-12) (VHH)
chain: QVRLVESGGGLVQAGDSLRLSCQASGGTFTTYAMGWFRQAPGQEREFVSATTWSTGTSYYAYAADSVKGRFTTSRDNDNTVTLTMKRLKPDDTAVYYCSADPDGSDWAHSARQLRYWGQGTQVTVSSEPKIPQPQPKPQPQPQPQPQPKPQPEPQVRLVESGGGLVQAGDSLRLSCQASGGTFTTYAMGWFRQAPGQEREFVSATTWSTGTSYYAYAADSVKGRFTTSRDNDNTVTLTMKRLKPDDTAVYYCSADPDGSDWAHSARQLRYWGQGTQVTVSS
notes: Tandem bivalent VhH without Fc; also called tandem bivalent Ibx-75; not shown: Flag tag, since detection was with anti-flag
binds: [10] | [9]
